Measurements reported in PubChem BioAssay AID1053209 (Peter MacCallum Cancer Centre, 2014).

Assay: 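Follow-up of single siRNAs that strengthen doxorubicin killing in osteosarcoma cells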 (follow-up of hits)
Cells: mouse primary osteosarcoma cells
Knock-down reagent: single siRNA against mouse genes, 25 nM (text also states 40 nM)
Time to read-out: about 120 h (48 h before drug, then 72 h with drug)
Conditions: doxorubicin 100 nM (about IC30-40), added 48 h after transfection, for 72 h
Measurement: 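ATP-based luminescent viability, with or without doxorubicin, relative to non-targeting control NT1, mean of two replicates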
Reading the numbers: viability with doxorubicin, vs NT1: higher = more viable cells under doxorubicin; viability without drug, vs NT1: higher = more viable cells without drug
Call rule: 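Active when doxorubicin viability is at most 0.7 of NT1 and drug-free viability lies between 0.7 and 1.1, class LC dox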
Here is an unselected part of about 1,580 reagents. Over the whole deposit, 207 (13%) were called active. 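Rows are single siRNAs; four siRNAs per gene were tested, a gene counting as confirmed only when at least two agree.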 Entries without a mark were called inactive. Reagents against one gene are numbered here. Further read-outs or replicates are left out here.

{"Target gene": "Mrpl15", "reagent no.": 1, "combined effect class": "high viability only without drug", "viability with doxorubicin, vs NT1": 1.03, "viability without drug, vs NT1": 1.1}
{"Target gene": "Mrpl15", "reagent no.": 2, "combined effect class": "low viability only with doxorubicin; normal without drug (active)", "viability with doxorubicin, vs NT1": 0.66, "viability without drug, vs NT1": 0.87}
{"Target gene": "Mrpl15", "reagent no.": 3, "combined effect class": "normal viability with and without drug", "viability with doxorubicin, vs NT1": 1.04, "viability without drug, vs NT1": 0.88}
{"Target gene": "Mrpl15", "reagent no.": 4, "combined effect class": "low viability with and without drug", "viability with doxorubicin, vs NT1": 0.32, "viability without drug, vs NT1": 0.56}
{"Target gene": "Rps26", "reagent no.": 1, "combined effect class": "normal viability with and without drug", "viability with doxorubicin, vs NT1": 1.07, "viability without drug, vs NT1": 1}
{"Target gene": "Rps26", "reagent no.": 2, "combined effect class": "low viability with and without drug", "viability with doxorubicin, vs NT1": 0.24, "viability without drug, vs NT1": 0.46}
{"Target gene": "Rps26", "reagent no.": 3, "combined effect class": "low viability with and without drug", "viability with doxorubicin, vs NT1": 0.36, "viability without drug, vs NT1": 0.48}
{"Target gene": "Rps26", "reagent no.": 4, "combined effect class": "normal viability with and without drug", "viability with doxorubicin, vs NT1": 0.97, "viability without drug, vs NT1": 0.96}
{"Target gene": "Rhbdl1", "reagent no.": 1, "combined effect class": "normal viability with and without drug", "viability with doxorubicin, vs NT1": 0.72, "viability without drug, vs NT1": 1}
{"Target gene": "Rhbdl1", "reagent no.": 2, "combined effect class": "normal viability with and without drug", "viability with doxorubicin, vs NT1": 0.85, "viability without drug, vs NT1": 0.89}
{"Target gene": "Rhbdl1", "reagent no.": 3, "combined effect class": "normal viability with and without drug", "viability with doxorubicin, vs NT1": 1.02, "viability without drug, vs NT1": 1.09}
{"Target gene": "Rhbdl1", "reagent no.": 4, "combined effect class": "normal viability with and without drug", "viability with doxorubicin, vs NT1": 1.04, "viability without drug, vs NT1": 0.92}
{"Target gene": "Meltf", "reagent no.": 1, "combined effect class": "normal viability with and without drug", "viability with doxorubicin, vs NT1": 0.91, "viability without drug, vs NT1": 0.98}
{"Target gene": "Meltf", "reagent no.": 2, "combined effect class": "normal viability with and without drug", "viability with doxorubicin, vs NT1": 1.08, "viability without drug, vs NT1": 1.03}
{"Target gene": "Meltf", "reagent no.": 3, "combined effect class": "low viability only with doxorubicin; normal without drug (active)", "viability with doxorubicin, vs NT1": 0.7, "viability without drug, vs NT1": 0.92}
{"Target gene": "Meltf", "reagent no.": 4, "combined effect class": "high viability only without drug", "viability with doxorubicin, vs NT1": 1.06, "viability without drug, vs NT1": 1.18}
{"Target gene": "Recql4", "reagent no.": 1, "combined effect class": "normal viability with and without drug", "viability with doxorubicin, vs NT1": 0.78, "viability without drug, vs NT1": 0.92}
{"Target gene": "Recql4", "reagent no.": 2, "combined effect class": "normal viability with and without drug", "viability with doxorubicin, vs NT1": 1.04, "viability without drug, vs NT1": 0.88}
{"Target gene": "Recql4", "reagent no.": 3, "combined effect class": "normal viability with and without drug", "viability with doxorubicin, vs NT1": 1.04, "viability without drug, vs NT1": 0.94}
{"Target gene": "Recql4", "reagent no.": 4, "combined effect class": "normal viability with and without drug", "viability with doxorubicin, vs NT1": 1.04, "viability without drug, vs NT1": 1.04}
{"Target gene": "Bst2", "reagent no.": 1, "combined effect class": "normal viability with and without drug", "viability with doxorubicin, vs NT1": 0.99, "viability without drug, vs NT1": 0.89}
{"Target gene": "Bst2", "reagent no.": 2, "combined effect class": "low viability only with doxorubicin; normal without drug (active)", "viability with doxorubicin, vs NT1": 0.67, "viability without drug, vs NT1": 0.8}
{"Target gene": "Bst2", "reagent no.": 3, "combined effect class": "normal viability with and without drug", "viability with doxorubicin, vs NT1": 0.85, "viability without drug, vs NT1": 0.84}
{"Target gene": "Bst2", "reagent no.": 4, "combined effect class": "normal viability with and without drug", "viability with doxorubicin, vs NT1": 1.04, "viability without drug, vs NT1": 1.04}

3 successive reagents already listed, for reference:
{"Target gene": "Rps26", "reagent no.": 3, "combined effect class": "low viability with and without drug", "viability with doxorubicin, vs NT1": 0.36, "viability without drug, vs NT1": 0.48}
{"Target gene": "Rps26", "reagent no.": 4, "combined effect class": "normal viability with and without drug", "viability with doxorubicin, vs NT1": 0.97, "viability without drug, vs NT1": 0.96}
{"Target gene": "Rhbdl1", "reagent no.": 1, "combined effect class": "normal viability with and without drug", "viability with doxorubicin, vs NT1": 0.72, "viability without drug, vs NT1": 1}
